According to PubChem BioAssay AID720504 (National Center for Advancing Translational Sciences (NCATS), 2013):
Out of some 360,000 compounds screened, about 10,000 (2.8%) were called active. The inconclusive results got no clear call from the source; some entries with a clear call stand among them for comparison. Calls come from the whole dose curve; as a rule, active = well fitted inhibition curve with a large enough effect; inconclusive = small, poorly fitted or top-dose-only effect; inactive = flat fitted curve, though single readings scatter. Where the call is inconclusive, the potency comes from a doubtful curve fit.

The chains behind the UniProt entries cited, without tags or fusion partners.
UniProt P53350, whole entry, looked up: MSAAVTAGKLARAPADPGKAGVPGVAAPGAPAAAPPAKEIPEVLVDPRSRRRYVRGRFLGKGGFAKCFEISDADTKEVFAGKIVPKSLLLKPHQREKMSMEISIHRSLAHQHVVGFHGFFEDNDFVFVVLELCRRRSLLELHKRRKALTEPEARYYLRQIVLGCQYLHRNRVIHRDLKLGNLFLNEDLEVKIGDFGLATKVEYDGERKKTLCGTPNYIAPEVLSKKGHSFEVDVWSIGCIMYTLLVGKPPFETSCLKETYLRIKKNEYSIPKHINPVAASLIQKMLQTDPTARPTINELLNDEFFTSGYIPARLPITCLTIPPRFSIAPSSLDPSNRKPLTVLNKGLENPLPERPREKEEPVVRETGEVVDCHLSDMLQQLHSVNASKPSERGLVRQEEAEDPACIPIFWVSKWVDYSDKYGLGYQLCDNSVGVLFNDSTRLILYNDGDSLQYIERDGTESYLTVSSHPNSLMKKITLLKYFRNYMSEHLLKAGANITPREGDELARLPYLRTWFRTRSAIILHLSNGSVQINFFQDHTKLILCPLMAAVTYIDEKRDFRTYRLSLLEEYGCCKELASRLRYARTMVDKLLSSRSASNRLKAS

molecular target: Serine/threonine-protein kinase PLK1 (Homo sapiens) (UniProt P53350); test: qHTS for Inhibitors of PLK1-PDB (polo-like kinase 1 - polo-box domain): Primary Screen; details: Plk1 PBD binding of FITC phosphopeptide, fluorescence polarization; note: nearly all actives have a fitted effect of over 65% in size; for max response, negative = inhibition: series mostly up to about 57 µM
% is set by controls: 0 for no effect and ±100 for the full control effect; potency is the fitted concentration of half-maximal effect.

Compound	Potency	max response, negative = inhibition
CCC1=NN(C(=O)COc2ccccc2C)C(O)(c2ccncc2)C1 (stereo not given)	inconclusive: 21.2 µM [inhibitor, partial curve]	–
Cc1cc(C)n(CC(O)CN2c3ccccc3Sc3ccccc32)n1 (stereo not given)	–	inactive: -6.14%
N=C1/C(=C/c2ccco2)C(=O)N=C2SC(CC(=O)N3CCCC3)=NN12	–	inconclusive: -13.9% [inhibitor]
O=C(CSc1n[nH]c(-c2ccncc2)n1)Nc1ccccn1	–	inactive: -14%
CC1CCCCC1NCc1cccc([N+](=O)[O-])c1 (stereo not given)	active: 26.7 µM	–
O=[N+]([O-])c1cc(S(=O)(=O)CCCN2CCOCC2)ccc1F	inconclusive: 29.9 µM [inhibitor, single point]	–
CC1=NOC(=O)/C1=C\c1ccc(-c2ccccc2Br)o1	active: 0.423 µM	–
COc1c(/C=C2\SC(=Nc3ccccc3Cl)NC2=O)cccc1[N+](=O)[O-]	inconclusive: 29.9 µM [inhibitor, single point]	–
CCc1nnc(NC(=O)C2CCCN(S(=O)(=O)c3ccc(OC)cc3)C2)s1 (stereo not given)	inconclusive: 33.6 µM [inhibitor, single point]	–
COc1cccc(NC(=O)CSc2nc3ncc(Br)cc3[nH]2)c1	inconclusive: 4.74 µM [inhibitor, single point]	–
C[C@H](NC(=O)COc1ccc(Cl)cc1)C(=O)N1CCC2(CC1)NCCc1[nH]cnc12	inconclusive: 21.2 µM [inhibitor, single point]	–
C[C@@H]1C=C(C(=O)NCc2nc3ccccc3[nH]2)O[C@H](OCc2ccc(CO)cc2)C1	–	inactive: -16.9%
COCCNC(=O)Cc1c(C)c2cc3c(cc2oc1=O)OC(C)(C)CC3	–	inactive: -5.99%
COc1ccccc1-c1nnc(SCC(=O)NC2CCCCC2)o1	active: 26.7 µM	–
O=C(c1cc2c(s1)CCC2)N1C(=O)c2ccccc2S1(=O)=O	–	inactive: -8.26%
CCCCN(C(=O)CSc1cc(C)c2ccc(OC)cc2n1)c1c(N)n(Cc2ccccc2)c(=O)[nH]c1=O	inconclusive: 21.2 µM [inhibitor, partial curve]	–
CCCCOc1ccc(C(=O)CCN2CCCCC2)cc1	inconclusive: 10.6 µM [inhibitor, partial curve]	–
COc1cc(-c2nnc(-c3ccco3)o2)ccc1OCc1ccccc1	–	inactive: -5.3%
CSc1ccc(C(=O)C2CCCN(C(=O)c3nn(C)c(=O)c4ccccc34)C2)cc1 (stereo not given)	active: 23.8 µM	–
Cc1c(C(=O)NCc2ccc(F)cc2)c(-c2ccccc2)nn1-c1ccccc1	inconclusive: 21.2 µM [inhibitor, partial curve]	–

A different layout for some results above:

| Compound | Potency | max response, negative = inhibition |
| --- | --- | --- |
| CC1=NOC(=O)/C1=C\c1ccc(-c2ccccc2Br)o1 | active: 0.423 µM | – |
| COc1c(/C=C2\SC(=Nc3ccccc3Cl)NC2=O)cccc1[N+](=O)[O-] | inconclusive: 29.9 µM [inhibitor, single point] | – |
